The values below come from the supplement of paper PMC10849652.

Sequences of proteins named here, by UniProt entry; tags and fusion partners are left off. A change or cut given only in a name is not applied to a line headed by its entry.
UniProt O15554, whole entry, looked up: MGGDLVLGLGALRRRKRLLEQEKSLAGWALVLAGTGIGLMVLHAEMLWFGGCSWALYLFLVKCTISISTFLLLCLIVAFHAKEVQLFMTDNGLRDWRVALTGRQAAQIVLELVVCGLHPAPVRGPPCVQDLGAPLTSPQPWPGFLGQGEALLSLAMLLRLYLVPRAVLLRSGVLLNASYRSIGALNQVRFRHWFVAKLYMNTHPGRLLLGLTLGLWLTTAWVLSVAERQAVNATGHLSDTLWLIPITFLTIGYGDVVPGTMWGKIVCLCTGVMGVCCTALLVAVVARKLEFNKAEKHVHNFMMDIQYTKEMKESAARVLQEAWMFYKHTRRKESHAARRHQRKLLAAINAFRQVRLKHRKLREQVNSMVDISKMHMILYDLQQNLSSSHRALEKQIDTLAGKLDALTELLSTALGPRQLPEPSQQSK
UniProt O43731: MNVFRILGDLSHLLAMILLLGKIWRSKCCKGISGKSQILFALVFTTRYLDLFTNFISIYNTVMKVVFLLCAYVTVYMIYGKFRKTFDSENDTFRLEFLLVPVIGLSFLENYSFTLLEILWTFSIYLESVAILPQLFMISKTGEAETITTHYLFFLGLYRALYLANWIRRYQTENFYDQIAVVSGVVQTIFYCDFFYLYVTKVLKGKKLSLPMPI
UniProt P53990, whole entry, looked up: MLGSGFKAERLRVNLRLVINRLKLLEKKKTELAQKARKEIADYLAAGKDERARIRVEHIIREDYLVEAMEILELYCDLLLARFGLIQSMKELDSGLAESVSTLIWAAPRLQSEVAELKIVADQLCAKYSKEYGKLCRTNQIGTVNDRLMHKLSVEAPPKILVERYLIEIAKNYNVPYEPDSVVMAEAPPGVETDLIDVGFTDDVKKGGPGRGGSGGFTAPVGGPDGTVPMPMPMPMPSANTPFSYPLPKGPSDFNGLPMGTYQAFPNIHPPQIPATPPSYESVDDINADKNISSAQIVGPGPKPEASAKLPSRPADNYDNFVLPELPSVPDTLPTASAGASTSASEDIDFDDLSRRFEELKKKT
UniProt Q9H079: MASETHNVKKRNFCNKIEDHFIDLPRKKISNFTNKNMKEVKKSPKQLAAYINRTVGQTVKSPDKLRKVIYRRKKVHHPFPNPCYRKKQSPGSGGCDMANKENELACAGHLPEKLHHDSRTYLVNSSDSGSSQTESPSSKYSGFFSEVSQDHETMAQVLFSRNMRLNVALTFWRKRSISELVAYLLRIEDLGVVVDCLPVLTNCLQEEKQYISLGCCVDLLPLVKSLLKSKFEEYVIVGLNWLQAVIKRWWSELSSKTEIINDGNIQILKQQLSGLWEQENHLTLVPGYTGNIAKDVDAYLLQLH
UniProt Q92830, whole entry, looked up: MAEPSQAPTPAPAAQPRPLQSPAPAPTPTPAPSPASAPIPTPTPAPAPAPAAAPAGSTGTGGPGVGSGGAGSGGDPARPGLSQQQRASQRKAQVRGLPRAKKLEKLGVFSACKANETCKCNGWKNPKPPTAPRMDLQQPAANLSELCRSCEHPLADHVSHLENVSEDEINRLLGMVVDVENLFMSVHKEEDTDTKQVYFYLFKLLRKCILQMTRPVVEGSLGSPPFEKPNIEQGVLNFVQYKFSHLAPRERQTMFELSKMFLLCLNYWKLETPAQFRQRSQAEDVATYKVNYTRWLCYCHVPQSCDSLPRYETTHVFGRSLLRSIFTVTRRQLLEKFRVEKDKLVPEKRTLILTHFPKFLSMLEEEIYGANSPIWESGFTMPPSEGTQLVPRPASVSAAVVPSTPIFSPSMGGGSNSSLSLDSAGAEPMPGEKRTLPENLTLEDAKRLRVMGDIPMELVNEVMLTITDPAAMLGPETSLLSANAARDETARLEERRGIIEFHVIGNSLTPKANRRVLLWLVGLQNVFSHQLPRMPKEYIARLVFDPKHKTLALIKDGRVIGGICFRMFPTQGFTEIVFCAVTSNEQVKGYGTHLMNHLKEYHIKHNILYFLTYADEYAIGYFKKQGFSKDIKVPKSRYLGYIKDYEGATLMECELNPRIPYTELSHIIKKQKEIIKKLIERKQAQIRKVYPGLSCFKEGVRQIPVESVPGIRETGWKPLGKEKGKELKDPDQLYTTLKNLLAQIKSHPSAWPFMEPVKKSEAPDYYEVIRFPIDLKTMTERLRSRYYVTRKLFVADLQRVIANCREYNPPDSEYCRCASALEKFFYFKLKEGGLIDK
UniProt Q14571, whole entry, looked up: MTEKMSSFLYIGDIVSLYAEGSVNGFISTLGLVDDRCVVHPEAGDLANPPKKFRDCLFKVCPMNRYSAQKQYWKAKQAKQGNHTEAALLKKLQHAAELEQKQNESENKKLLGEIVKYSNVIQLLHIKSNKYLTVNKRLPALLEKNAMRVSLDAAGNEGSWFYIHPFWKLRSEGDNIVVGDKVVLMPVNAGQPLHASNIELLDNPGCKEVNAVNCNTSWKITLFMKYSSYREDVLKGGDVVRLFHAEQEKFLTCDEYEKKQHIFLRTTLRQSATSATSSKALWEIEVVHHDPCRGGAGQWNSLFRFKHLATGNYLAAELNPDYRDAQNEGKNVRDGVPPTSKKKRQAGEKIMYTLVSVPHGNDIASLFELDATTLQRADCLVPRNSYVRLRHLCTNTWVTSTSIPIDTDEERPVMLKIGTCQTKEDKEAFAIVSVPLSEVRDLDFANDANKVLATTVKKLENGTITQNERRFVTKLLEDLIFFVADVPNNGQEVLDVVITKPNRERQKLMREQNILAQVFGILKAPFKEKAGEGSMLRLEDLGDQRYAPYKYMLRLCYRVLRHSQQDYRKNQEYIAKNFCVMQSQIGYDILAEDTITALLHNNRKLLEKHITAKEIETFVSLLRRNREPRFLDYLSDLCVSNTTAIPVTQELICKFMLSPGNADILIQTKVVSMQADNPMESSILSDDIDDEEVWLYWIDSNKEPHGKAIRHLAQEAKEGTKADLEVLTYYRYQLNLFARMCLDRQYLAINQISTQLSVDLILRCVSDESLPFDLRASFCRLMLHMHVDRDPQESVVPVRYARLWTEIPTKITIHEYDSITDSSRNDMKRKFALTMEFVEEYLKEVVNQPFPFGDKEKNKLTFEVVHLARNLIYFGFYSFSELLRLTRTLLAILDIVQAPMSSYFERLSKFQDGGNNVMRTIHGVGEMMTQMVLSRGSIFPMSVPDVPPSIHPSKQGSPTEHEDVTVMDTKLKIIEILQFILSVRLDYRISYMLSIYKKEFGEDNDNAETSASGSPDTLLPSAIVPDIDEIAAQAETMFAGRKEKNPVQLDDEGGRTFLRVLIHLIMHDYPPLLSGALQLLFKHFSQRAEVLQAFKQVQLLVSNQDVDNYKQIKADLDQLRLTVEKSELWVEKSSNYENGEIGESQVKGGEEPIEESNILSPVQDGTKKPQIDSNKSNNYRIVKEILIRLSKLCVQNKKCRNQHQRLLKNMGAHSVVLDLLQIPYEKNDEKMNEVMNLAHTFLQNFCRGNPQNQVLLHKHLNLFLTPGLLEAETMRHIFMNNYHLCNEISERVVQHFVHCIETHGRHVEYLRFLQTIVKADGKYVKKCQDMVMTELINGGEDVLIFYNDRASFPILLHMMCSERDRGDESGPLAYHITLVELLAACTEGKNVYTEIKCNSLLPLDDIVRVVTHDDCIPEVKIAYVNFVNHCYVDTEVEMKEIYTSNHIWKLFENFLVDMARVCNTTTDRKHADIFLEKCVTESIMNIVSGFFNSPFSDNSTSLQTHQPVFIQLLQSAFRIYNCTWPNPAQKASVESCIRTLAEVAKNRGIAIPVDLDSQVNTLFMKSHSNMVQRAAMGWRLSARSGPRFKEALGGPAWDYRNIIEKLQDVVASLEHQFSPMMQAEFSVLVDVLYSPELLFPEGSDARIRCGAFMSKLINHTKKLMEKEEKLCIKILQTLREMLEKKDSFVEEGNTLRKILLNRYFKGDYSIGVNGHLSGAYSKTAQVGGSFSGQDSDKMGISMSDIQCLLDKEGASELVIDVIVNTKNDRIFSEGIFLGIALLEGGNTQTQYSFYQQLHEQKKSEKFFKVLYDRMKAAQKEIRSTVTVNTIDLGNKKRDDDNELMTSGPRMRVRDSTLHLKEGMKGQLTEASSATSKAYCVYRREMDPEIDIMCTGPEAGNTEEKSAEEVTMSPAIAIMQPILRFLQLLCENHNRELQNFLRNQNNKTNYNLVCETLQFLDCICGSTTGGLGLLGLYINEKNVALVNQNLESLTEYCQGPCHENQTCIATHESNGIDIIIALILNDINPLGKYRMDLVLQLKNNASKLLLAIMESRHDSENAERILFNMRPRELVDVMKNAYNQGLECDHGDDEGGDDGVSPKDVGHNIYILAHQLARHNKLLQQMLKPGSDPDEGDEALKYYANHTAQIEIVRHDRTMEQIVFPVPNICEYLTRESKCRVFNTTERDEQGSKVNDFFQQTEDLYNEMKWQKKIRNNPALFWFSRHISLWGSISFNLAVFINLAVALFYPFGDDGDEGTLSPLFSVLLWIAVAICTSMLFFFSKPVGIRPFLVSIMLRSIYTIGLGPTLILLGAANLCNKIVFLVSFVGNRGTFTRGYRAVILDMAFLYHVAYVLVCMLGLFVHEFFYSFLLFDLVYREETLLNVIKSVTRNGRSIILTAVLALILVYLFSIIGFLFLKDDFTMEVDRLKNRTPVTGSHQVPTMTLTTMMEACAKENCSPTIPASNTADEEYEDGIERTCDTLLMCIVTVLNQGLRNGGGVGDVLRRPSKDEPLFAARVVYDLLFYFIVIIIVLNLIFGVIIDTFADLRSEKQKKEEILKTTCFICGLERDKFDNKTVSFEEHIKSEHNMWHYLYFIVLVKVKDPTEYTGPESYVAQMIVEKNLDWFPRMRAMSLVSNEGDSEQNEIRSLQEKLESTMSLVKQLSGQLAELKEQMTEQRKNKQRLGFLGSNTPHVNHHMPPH
UniProt Q9H9L3: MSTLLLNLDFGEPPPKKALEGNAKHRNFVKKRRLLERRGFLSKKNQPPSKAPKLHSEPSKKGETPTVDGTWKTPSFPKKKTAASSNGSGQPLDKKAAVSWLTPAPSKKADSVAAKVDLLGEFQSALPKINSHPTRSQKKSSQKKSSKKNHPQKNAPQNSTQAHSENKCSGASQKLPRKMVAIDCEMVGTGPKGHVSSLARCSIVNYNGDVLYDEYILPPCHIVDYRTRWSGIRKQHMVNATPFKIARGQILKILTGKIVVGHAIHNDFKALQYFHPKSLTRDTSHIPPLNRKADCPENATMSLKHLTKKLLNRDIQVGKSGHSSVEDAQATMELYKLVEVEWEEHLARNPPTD
UniProt Q7Z3B3: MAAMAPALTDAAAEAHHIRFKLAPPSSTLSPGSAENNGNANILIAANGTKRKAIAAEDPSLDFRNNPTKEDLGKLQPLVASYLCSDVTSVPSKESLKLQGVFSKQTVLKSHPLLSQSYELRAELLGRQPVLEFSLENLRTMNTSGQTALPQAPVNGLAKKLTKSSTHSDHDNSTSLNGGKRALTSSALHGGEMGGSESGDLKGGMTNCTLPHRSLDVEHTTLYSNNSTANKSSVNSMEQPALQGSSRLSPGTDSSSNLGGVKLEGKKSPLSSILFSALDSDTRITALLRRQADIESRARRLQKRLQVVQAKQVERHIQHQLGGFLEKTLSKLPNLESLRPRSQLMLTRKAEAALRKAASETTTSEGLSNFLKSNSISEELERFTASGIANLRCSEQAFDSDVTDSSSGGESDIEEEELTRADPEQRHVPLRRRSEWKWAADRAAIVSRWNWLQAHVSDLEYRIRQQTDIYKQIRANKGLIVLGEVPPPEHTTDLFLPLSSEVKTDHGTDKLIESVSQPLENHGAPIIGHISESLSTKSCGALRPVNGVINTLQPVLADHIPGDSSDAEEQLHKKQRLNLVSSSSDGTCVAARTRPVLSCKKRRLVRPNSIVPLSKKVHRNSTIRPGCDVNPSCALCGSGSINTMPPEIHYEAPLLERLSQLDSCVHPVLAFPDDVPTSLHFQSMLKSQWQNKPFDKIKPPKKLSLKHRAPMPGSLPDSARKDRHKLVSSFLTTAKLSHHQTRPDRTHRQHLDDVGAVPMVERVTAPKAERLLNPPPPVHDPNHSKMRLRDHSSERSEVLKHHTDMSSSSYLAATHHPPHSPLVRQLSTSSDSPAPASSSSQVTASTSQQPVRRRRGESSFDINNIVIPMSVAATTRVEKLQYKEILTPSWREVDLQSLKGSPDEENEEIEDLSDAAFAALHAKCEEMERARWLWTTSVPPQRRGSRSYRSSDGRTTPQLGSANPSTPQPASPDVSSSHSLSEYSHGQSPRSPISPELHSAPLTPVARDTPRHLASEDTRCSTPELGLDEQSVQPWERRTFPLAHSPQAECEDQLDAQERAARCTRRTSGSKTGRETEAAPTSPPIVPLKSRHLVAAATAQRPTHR
UniProt Q96MP8: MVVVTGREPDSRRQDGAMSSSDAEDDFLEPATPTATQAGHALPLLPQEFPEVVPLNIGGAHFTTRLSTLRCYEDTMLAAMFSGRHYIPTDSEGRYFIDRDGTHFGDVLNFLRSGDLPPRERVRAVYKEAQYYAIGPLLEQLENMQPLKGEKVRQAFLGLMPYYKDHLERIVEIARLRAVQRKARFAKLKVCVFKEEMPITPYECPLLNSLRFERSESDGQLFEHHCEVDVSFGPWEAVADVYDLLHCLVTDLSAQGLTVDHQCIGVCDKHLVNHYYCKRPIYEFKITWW

This is one part of the list.

Compound in one assay: CC1=C(C(CC(=O)N1)C2=CC=C(C=C2)C(F)(F)F)C(=O)NC3=C(C=C4C(=C3)C=NN4)F
As to the kind of experiment: log2 fold change, soluble protein after heating vs DMSO (PISA); higher = thermal stabilisation; K562 lysate, 10 uM; active = over 0.2 and 3.5 SD of the protein, either way, in both replicates (recomputed). The method in brief: (§1)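 Quantification was by TMTpro 16plex LC-MS/MS with equalised channel sums, applied to the supernatant after 21,000xg for 90 min. Samples were crude K562 extract at 1 mg/mL protein in PBS pH 7.4 with 1 mM MgCl2, treated with 10 μM compound for 30 min, heated for 3 min across 48°C-58°C, pooled and brought to 0.5% NP-40 at 4°C. Values are log-two fold changes in thermal stability relative to solvent controls, from duplicates.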
In the case of KCNN4 (UniProt O15554), the log2 fold change was inactive: -0.107.

For the target KBTBD6 (UniProt Q86V97), the log2 fold change is inactive: 0.148.

For the target KDELR3 (UniProt O43731), the log2 fold change was inactive: 0.048.

As to IST1 isoform 2 (UniProt P53990), the log2 fold change was inactive: 0.103.

JAK2 (UniProt O60674): the log2 fold change was inactive: 0.041.

With KATNBL1 (UniProt Q9H079), the log2 fold change was inactive: -0.029.

Turning to IQCB1 (UniProt Q15051), the log2 fold change is inactive: 0.033.

As for JARID2 (UniProt Q92833), the log2 fold change is inactive: -0.011.

With KAT2A (UniProt Q92830), the log2 fold change was inactive: 0.

Take ITPR2 (UniProt Q14571): the log2 fold change is inactive: -0.137.

Consider JRK isoform 2 (UniProt O75564), for which the log2 fold change was inactive: 0.083.

On to ISG20L2 (UniProt Q9H9L3), for which the log2 fold change was inactive: 0.064.

Take KANSL1 (UniProt Q7Z3B3): the log2 fold change was inactive: 0.074.

On to IPO5 (UniProt H0Y3V4), for which the log2 fold change is inactive: -0.048.

Regarding ITGA2B (UniProt P08514), the log2 fold change is inactive: -0.086.

Compound in the next assay: CC1=C(C2=C(C=C1)C(=O)C3=CC=CC=C3N2CCCN)C
The assay is described as above. The method in brief:
as §1
With IRF9 (UniProt Q00978), the log2 fold change is inactive: -0.099.

Regarding KANK2 isoform 2 (UniProt Q63ZY3), the log2 fold change is inactive: -0.042.

With ITFG2 (UniProt H0YGR0), the log2 fold change is inactive: -0.065.

Take KCTD7 (UniProt Q96MP8): the log2 fold change is inactive: 0.111.

Consider IPP (UniProt Q9Y573), for which the log2 fold change is inactive: -0.006.

KDELR3 (UniProt O43731): the log2 fold change is inactive: 0.046.

For ITGB1BP2 (UniProt Q9UKP3), the log2 fold change was inactive: 0.139.

IST1 isoform 2 (UniProt P53990): the log2 fold change is inactive: 0.037.

Turning to JAK2 (UniProt O60674), the log2 fold change is inactive: 0.124.

Turning to KATNBL1 (UniProt Q9H079), the log2 fold change was inactive: -0.002.

For JPT2 isoform 2 (UniProt Q9H910), the log2 fold change is inactive: -0.187.

Turning to IQCB1 (UniProt Q15051), the log2 fold change was inactive: -0.197.

On to JUN (UniProt P05412), for which the log2 fold change was inactive: 0.074.

Turning to INTS6L (UniProt Q5JSJ4), the log2 fold change is inactive: -0.019.

ITPRIP (UniProt Q8IWB1): the log2 fold change was inactive: 0.041.

KAT2A (UniProt Q92830): the log2 fold change was inactive: -0.055.

For the target ITPR2 (UniProt Q14571), the log2 fold change was inactive: -0.072.

Consider ISG20L2 (UniProt Q9H9L3), for which the log2 fold change was inactive: 0.006.

For KANSL1 (UniProt Q7Z3B3), the log2 fold change is inactive: -0.027.

On to IPO5 (UniProt H0Y3V4), for which the log2 fold change was inactive: -0.04.

With JUNB (UniProt P17275), the log2 fold change was inactive: -0.241.

With ISG20 (UniProt Q96AZ6), the log2 fold change is inactive: -0.049.

On to JADE2 (UniProt Q9NQC1), for which the log2 fold change is inactive: -0.036.

Compound in another assay: CC1=C(C=C(C=C1)NC(=O)C2=CC(=CC=C2)C(C)(C)C#N)NC3=CC4=C(C=C3)N=CN(C4=O)C
The description is as above. The method in brief: as §1
Consider KCNN4 (UniProt O15554), for which the log2 fold change is inactive: -0.193.

KCTD16 (UniProt Q68DU8): the log2 fold change is inactive: 0.073.

Consider JAK1 (UniProt P23458), for which the log2 fold change is inactive: -0.003.

Regarding JCHAIN (UniProt P01591), the log2 fold change is inactive: -0.131.

Take ITGB3BP isoform 5 (UniProt Q13352): the log2 fold change is inactive: -0.045.

Take KBTBD6 (UniProt Q86V97): the log2 fold change was inactive: -0.068.

With KCTD7 (UniProt Q96MP8), the log2 fold change was inactive: -0.195.

Turning to KDELR3 (UniProt O43731), the log2 fold change was inactive: -0.019.

Take IST1 isoform 2 (UniProt P53990): the log2 fold change was inactive: 0.037.

For the target KATNBL1 (UniProt Q9H079), the log2 fold change is inactive: 0.082.

With JUN (UniProt P05412), the log2 fold change was inactive: 0.12.

In the case of KCNH2 (UniProt Q12809), the log2 fold change was inactive: 0.062.

Regarding ITPR3 (UniProt Q14573), the log2 fold change is inactive: -0.016.

Regarding KALRN (UniProt O60229), the log2 fold change was inactive: 0.051.

As for KAT2A (UniProt Q92830), the log2 fold change was inactive: -0.051.

Take KANSL2 (UniProt Q9H9L4): the log2 fold change was inactive: 0.097.

On to JUNB (UniProt P17275), for which the log2 fold change is inactive: 0.178.

ITGA2B (UniProt P08514): the log2 fold change is inactive: 0.102.

As for KDM2B (UniProt Q8NHM5), the log2 fold change is inactive: 0.054.

Compound in another assay: CC1=C(C=C(C=C1)NC(=O)C2=CC(=CC=C2)N(C)C)NC(=O)C3=CC=C(C=C3)O
The assay is described as above. The procedure, abridged: as §1
As for KCNN4 (UniProt O15554), the log2 fold change was inactive: -0.076.

Turning to IRF9 (UniProt Q00978), the log2 fold change was inactive: 0.04.

With ITIH3 (UniProt Q06033), the log2 fold change was inactive: 0.068.

Consider ITGB3BP isoform 5 (UniProt Q13352), for which the log2 fold change is inactive: -0.027.

As to KANK2 isoform 2 (UniProt Q63ZY3), the log2 fold change was inactive: -0.053.

With ITFG2 (UniProt H0YGR0), the log2 fold change was inactive: 0.

In the case of KCTD7 (UniProt Q96MP8), the log2 fold change was inactive: 0.012.

Regarding IPP (UniProt Q9Y573), the log2 fold change was inactive: 0.088.

For KDELR3 (UniProt O43731), the log2 fold change is inactive: -0.008.

Turning to IST1 isoform 2 (UniProt P53990), the log2 fold change was inactive: -0.069.

As to INTU (UniProt Q9ULD6), the log2 fold change is inactive: -0.231.

Take JAK2 (UniProt O60674): the log2 fold change was inactive: 0.088.

As for JUN (UniProt P05412), the log2 fold change was inactive: -0.129.

For the target INTS6L (UniProt Q5JSJ4), the log2 fold change is inactive: 0.007.

As to KAT2A (UniProt Q92830), the log2 fold change was inactive: -0.131.

Take ITPR2 (UniProt Q14571): the log2 fold change was inactive: -0.031.

Regarding ISG20L2 (UniProt Q9H9L3), the log2 fold change was inactive: 0.097.

For the target KANSL1 (UniProt Q7Z3B3), the log2 fold change was inactive: 0.019.

On to IPO5 (UniProt H0Y3V4), for which the log2 fold change was inactive: 0.154.

On to KANSL2 (UniProt Q9H9L4), for which the log2 fold change is inactive: 0.111.

Take ITGA2B (UniProt P08514): the log2 fold change was inactive: 0.057.

Regarding KDM2B (UniProt Q8NHM5), the log2 fold change was inactive: -0.043.
